Values from PubChem BioAssay AID493246 (Drosophila RNAi Screening Center, 2011).
In all, the deposit lists about 21,000 reagents; shown is a random part of those that have a named target and a result. Of all reagents, 429 (2%) got an active call. 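Values are raw and not normalised between plates; calls rest on per-plate z-scores that were not deposited.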 Names joined by + are all predicted targets of the reagent. Reagent sequences are not shown. The record does not give: the amount of reagent, the time to read-out.

Purpose: 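Genome-wide search for dsRNAs that reduce cell number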 (primary screen)
Cells: Drosophila Kc and S2R+ cells
Reagents: long dsRNA against Drosophila genes
Measurement: 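Raw, unnormalised count of remaining cells in each well; per-plate z-scores of cell number underlie the calls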
Direction: Kc cell number and S2R+ cell number: higher = more cells remaining
Call rule: 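Active when the per-plate z-score of cell number is 3 or more in the direction of fewer cells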

no.	predicted target	dsRNA	Kc cell number, rep 1	Kc cell number, rep 2	S2R+ cell number, rep 1	S2R+ cell number, rep 2	outcome
1	CG12848	DRSC04128	1.70e6	1.75e6	1.43e6	1.55e6	inactive
2	CG43347	DRSC17982	1.58e6	1.47e6	9.62e5	1.03e6	inactive
3	CG43347	DRSC18446	9.13e5	9.54e5	4.82e5	5.94e5	active
4	CG31686 (retired record)	DRSC00102	1.68e6	1.68e6	9.94e5	1.14e6	inactive
5	Uro	DRSC03469	1.71e6	1.81e6	1.29e6	1.51e6	inactive
6	crc	DRSC03513	1.55e6	1.66e6	1.36e6	5.48e5	inactive
7	CG7518	DRSC16253	1.62e6	1.68e6	1.15e6	1.31e6	inactive
8	CG13931	DRSC08400	1.48e6	1.41e6	9.93e5	1.21e6	inactive
9	CG15914	DRSC19739	1.45e6	1.45e6	1.05e6	1.16e6	inactive
10	CG14417	DRSC18638	1.73e6	1.82e6	1.14e6	1.26e6	inactive
11	mtg	DRSC16256	1.67e6	1.77e6	1.40e6	1.57e6	inactive
12	Ir60a	DRSC04212	1.51e6	1.55e6	1.18e6	1.34e6	inactive
13	CG13833	DRSC14683	1.59e6	1.67e6	9.84e5	1.06e6	inactive
14	CG8065	DRSC10959	1.43e6	1.35e6	1.33e6	1.36e6	inactive
15	Smn	DRSC10223	1.59e6	1.65e6	1.17e6	1.18e6	inactive
16	dpn	DRSC07605	1.51e6	1.57e6	1.22e6	1.36e6	inactive
17	gce	DRSC19613	1.54e6	1.56e6	1.08e6	1.16e6	inactive
18	gce	DRSC19974	1.55e6	1.54e6	9.60e5	1.08e6	inactive
19	Rpn2	DRSC16839	2.89e5		4.78e5		active
20	Npc2d	DRSC14551	1.57e6	1.54e6	1.17e6	1.31e6	inactive
21	Hou	DRSC20001	1.61e6	1.60e6	1.14e6	1.29e6	inactive
22	Osi18	DRSC12181	1.64e6	1.83e6	1.17e6	1.26e6	inactive
23	CG42703	DRSC03973	6.99e5		9.91e5		inactive
24	CG14693	DRSC14916	1.62e6	1.70e6	1.43e6	1.55e6	inactive
25	PPYR1	DRSC19612	1.60e6	1.61e6	1.02e6	1.11e6	inactive
26	exex	DRSC10972	1.42e6	1.43e6	1.17e6	1.24e6	inactive
27	CG9062	DRSC07327	1.57e6	1.57e6	1.25e6	1.28e6	inactive
28	CG34198	DRSC05803	4.68e5		6.73e5		inactive
29	unc-104	DRSC07710	1.64e6	1.70e6	1.28e6	1.39e6	inactive
30	sesB	DRSC20371	1.23e6	1.33e6	9.23e5	9.77e5	inactive

The list goes on, starting with the last 8 of the part before.
no.	predicted target	dsRNA	Kc cell number, rep 1	Kc cell number, rep 2	S2R+ cell number, rep 1	S2R+ cell number, rep 2	outcome
23	CG42703	DRSC03973	6.99e5		9.91e5		inactive
24	CG14693	DRSC14916	1.62e6	1.70e6	1.43e6	1.55e6	inactive
25	PPYR1	DRSC19612	1.60e6	1.61e6	1.02e6	1.11e6	inactive
26	exex	DRSC10972	1.42e6	1.43e6	1.17e6	1.24e6	inactive
27	CG9062	DRSC07327	1.57e6	1.57e6	1.25e6	1.28e6	inactive
28	CG34198	DRSC05803	4.68e5		6.73e5		inactive
29	unc-104	DRSC07710	1.64e6	1.70e6	1.28e6	1.39e6	inactive
30	sesB	DRSC20371	1.23e6	1.33e6	9.23e5	9.77e5	inactive
31	CG30114	DRSC05707	5.69e5		6.77e5		inactive
32	CG7889	DRSC20066	1.65e6	1.65e6	1.21e6	1.34e6	inactive
33	CG33177	DRSC19949	1.66e6	1.65e6	1.21e6	1.26e6	inactive
34	wts	DRSC17096	9.19e5	9.77e5	4.40e5	5.03e5	active
35	CG13442	DRSC06402	1.47e6	1.40e6	1.05e6	1.39e6	inactive
36	brv2	DRSC10226	1.50e6	1.20e6	1.13e6	1.29e6	inactive
37	CG13043	DRSC09924	1.51e6	1.51e6	1.24e6	1.32e6	inactive
38	Iru	DRSC14457	1.45e6	1.51e6	1.18e6	1.24e6	inactive
39	ClpP	DRSC02806	1.39e6	1.37e6	1.19e6	1.32e6	inactive
40	Ada3	DRSC20321	1.50e6	1.49e6	1.10e6	1.19e6	inactive
41	Ada3	DRSC20322	1.30e6	1.45e6	1.08e6	1.08e6	inactive
42	Ack	DRSC08135	1.49e6	1.33e6	9.61e5	1.17e6	inactive
43	CG11737	DRSC14364	1.58e6	1.77e6	1.24e6	1.28e6	inactive
44	Galphai	DRSC11168	1.27e6	1.35e6	1.09e6	1.07e6	inactive
45	Megf8	DRSC03058	1.35e6	1.33e6	7.29e5	9.79e5	inactive
46	Klf15	DRSC17742	1.56e6	1.55e6	1.09e6	1.16e6	inactive
47	CG7550	DRSC10875	1.39e6	1.26e6	1.32e6	1.30e6	inactive
48	CG42380 + CG42379 + PIG-M + 1 more	DRSC03884	6.68e5		9.60e5		inactive
49	CG42380 + CG42379 + PIG-M + 1 more	DRSC04580	1.26e6	1.35e6	9.30e5	9.00e5	inactive
50	Vm26Aa	DRSC03472	1.61e6	1.27e6	1.12e6	1.28e6	inactive
51	CG7872	DRSC20062	5.69e5		8.43e5		inactive
52	Spn	DRSC07986	1.54e6	1.45e6	1.06e6	1.18e6	inactive
53	Spn	DRSC08490	1.44e6	1.62e6	1.14e6	1.17e6	inactive
54	Spn	DRSC08491	1.53e6	1.42e6	1.03e6	1.18e6	inactive
55	MED14	DRSC08235	8.70e5	9.58e5	7.17e5	7.52e5	active
56	CG15824	DRSC00473	1.56e6	1.56e6	1.10e6	1.24e6	inactive
57	beat-Ia	DRSC03489	1.77e6	1.76e6	1.36e6	1.53e6	inactive
58	Rbsn-5	DRSC03094	1.38e6	1.37e6	7.16e5	9.23e5	inactive
59	FASN1	DRSC00268	1.17e6	1.17e6	8.10e5	9.35e5	inactive
